Experimental data as given in patent US6894153B1 (priority 1999, dated 2005).
Strings that start with PEPTIDE1 are HELM notation: dots part the residues, brackets hold end groups and non-standard residues.

Assay: peptide synthesis
Conditions: whole synthesis, HPLC and MALDI-TOF MS

| Substance | final HPLC purity |
| --- | --- |
| PEPTIDE1{D.I.L.R.G}$$$$V2.0 | not less than 95% |
| Asp-Ile-Leu-Arg-Gly-NH2 [DILRG—NH2] | not less than 95% |
